1 substance from publication doi:10.1101/2024.12.04.625365 can be followed below.

Chains of the proteins cited; added tags and fusions are not shown. Lines headed by an entry give the natural chain unless they say otherwise; changes in a name come on top. Residues count along the entry.
UniProt P55087, residues 23-323: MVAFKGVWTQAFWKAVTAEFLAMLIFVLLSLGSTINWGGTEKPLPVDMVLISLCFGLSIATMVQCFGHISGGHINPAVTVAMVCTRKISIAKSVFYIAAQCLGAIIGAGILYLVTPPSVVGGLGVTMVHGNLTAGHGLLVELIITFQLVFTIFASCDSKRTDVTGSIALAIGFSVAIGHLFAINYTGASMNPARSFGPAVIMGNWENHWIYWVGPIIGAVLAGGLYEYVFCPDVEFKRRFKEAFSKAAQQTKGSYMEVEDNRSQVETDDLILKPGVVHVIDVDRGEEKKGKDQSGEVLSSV

For this test, the target named is human AQP4-M23-GFP (human) (UniProt P55087). The test can be described thus: native gel or EMSA.

Results are given in words; binding and its absence hold for the method and conditions named. Some entries that bind do so weakly or less than the wild type.

Take “human AQP4-M23-GFP (from UniProt P55087-2 1-301)”: the binding result is listed as “binds”.
